No constants are given. Whether binding was seen depends on the method and setting. In cells and extracts the contact can be indirect. A yes stands for co-enrichment or nearness to the bait. Other partners may have been found.

Sequences of proteins named here, by UniProt entry; tags and fusion partners are left off.
UniProt P18760: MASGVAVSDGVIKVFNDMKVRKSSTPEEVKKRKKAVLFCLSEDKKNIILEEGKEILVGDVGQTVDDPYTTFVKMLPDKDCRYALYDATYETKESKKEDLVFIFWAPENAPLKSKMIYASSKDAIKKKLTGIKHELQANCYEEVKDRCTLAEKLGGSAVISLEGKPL
UniProt Q99KW3: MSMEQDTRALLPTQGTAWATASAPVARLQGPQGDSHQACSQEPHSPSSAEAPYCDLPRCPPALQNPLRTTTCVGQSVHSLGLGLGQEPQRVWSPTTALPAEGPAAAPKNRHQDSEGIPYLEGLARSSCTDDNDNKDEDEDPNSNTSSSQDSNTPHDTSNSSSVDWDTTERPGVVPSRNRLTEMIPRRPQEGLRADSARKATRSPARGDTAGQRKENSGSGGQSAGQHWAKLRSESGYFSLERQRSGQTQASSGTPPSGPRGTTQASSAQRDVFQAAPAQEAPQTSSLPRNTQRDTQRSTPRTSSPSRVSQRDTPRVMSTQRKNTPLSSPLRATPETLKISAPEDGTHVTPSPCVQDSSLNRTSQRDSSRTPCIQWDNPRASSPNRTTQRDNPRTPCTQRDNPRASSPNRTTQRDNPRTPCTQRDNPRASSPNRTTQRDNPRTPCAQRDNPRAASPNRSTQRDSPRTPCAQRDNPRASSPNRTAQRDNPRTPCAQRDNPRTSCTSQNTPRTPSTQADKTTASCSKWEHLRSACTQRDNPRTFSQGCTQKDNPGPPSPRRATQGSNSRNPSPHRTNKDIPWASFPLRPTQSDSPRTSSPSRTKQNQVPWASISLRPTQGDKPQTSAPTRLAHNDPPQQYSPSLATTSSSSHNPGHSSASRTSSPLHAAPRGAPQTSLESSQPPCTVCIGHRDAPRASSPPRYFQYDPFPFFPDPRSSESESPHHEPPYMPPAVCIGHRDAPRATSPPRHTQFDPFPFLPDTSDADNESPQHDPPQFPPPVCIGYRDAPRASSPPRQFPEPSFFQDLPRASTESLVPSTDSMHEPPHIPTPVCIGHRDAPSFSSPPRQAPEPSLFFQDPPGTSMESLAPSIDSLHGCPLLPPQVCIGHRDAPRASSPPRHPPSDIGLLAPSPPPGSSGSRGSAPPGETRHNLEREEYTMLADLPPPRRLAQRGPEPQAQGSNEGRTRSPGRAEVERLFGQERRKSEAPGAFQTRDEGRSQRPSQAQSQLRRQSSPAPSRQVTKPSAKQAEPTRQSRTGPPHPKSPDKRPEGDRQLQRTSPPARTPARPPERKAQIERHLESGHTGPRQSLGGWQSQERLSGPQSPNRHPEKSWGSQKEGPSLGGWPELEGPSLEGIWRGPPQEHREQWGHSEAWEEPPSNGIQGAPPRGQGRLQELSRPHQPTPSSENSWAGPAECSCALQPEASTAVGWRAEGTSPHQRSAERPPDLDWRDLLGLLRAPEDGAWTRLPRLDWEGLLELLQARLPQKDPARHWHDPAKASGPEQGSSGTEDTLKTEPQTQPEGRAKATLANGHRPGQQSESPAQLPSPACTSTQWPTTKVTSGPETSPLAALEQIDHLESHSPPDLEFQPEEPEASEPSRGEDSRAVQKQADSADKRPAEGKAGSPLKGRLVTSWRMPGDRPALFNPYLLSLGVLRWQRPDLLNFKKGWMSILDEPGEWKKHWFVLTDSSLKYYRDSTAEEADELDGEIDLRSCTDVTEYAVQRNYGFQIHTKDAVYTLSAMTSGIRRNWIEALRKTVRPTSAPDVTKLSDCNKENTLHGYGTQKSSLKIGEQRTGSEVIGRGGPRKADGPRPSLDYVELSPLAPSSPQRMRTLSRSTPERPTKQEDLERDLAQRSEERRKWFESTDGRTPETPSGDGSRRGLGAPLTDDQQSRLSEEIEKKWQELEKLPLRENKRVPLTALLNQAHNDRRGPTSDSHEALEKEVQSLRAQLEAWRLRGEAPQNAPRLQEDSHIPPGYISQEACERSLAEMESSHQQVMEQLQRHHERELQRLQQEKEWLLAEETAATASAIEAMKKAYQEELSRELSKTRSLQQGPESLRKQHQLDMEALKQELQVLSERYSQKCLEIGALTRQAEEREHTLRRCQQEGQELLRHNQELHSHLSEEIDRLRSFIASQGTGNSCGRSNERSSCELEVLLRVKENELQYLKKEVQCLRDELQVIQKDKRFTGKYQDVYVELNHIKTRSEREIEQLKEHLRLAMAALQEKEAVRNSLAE
UniProt Q60598: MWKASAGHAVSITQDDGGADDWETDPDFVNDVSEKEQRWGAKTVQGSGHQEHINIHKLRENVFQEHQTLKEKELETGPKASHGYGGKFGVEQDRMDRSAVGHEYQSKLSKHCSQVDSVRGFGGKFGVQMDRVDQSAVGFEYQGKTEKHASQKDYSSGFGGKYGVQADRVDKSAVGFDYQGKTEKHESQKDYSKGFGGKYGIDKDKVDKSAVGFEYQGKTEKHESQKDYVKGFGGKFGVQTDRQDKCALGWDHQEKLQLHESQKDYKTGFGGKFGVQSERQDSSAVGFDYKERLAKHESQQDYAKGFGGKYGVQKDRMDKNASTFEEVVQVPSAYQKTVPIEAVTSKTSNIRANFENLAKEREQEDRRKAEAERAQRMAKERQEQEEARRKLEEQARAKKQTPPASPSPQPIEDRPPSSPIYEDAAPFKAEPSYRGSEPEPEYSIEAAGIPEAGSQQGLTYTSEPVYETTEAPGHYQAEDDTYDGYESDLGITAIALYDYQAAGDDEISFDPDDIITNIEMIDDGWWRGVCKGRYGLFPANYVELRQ

The target of the assay is T1, Neuropilin-2 (mouse (endogenous in mLMECs)) (UniProt O35375).
T1 sequence: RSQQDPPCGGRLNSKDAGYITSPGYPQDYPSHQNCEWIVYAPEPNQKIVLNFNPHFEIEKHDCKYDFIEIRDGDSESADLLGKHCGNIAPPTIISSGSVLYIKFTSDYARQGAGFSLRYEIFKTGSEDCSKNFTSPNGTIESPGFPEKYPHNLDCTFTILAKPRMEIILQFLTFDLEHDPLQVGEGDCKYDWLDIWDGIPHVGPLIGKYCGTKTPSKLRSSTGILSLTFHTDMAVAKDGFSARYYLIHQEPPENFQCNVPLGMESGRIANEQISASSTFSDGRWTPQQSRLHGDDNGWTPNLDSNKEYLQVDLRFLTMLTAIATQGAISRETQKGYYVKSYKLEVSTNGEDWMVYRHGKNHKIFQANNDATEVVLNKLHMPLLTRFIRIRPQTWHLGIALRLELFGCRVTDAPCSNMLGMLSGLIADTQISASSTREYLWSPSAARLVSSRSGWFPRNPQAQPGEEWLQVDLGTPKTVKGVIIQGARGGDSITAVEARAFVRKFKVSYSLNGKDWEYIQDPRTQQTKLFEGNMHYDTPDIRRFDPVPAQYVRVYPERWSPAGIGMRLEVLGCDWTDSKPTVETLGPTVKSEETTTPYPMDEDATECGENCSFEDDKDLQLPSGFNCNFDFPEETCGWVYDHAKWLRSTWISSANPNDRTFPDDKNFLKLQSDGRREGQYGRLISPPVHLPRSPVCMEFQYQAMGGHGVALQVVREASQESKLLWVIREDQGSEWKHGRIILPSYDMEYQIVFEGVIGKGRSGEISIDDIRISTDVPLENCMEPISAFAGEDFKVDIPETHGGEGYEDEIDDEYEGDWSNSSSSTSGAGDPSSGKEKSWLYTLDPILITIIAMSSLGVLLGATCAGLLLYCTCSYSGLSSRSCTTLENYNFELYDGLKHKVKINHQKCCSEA
In words: affinity purification with mass spectrometry.
Regarding cofilin-1 (from UniProt P18760 1-166), the binding entry was “binds”. Regarding “TRIO-binding protein (from UniProt Q99KW3 1-2014)”, the binding result is “binds”. The value for cortactin (from UniProt Q60598 1-546) was “binds”.

(Values after article doi:10.1101/2021.01.15.426835.)
